Data as given in patent US20190202912A1.
Changes are numbered by the printed parent chain. No constants are given. Whether binding was seen depends on the method and setting. A result given as binding can be weak or reduced; the word gives no strength.

Key:
[1] = molecular target: mS15 (Mus musculus); assay: flow cytometry MFI on 293T.mS15 cells (y axis of the dot plot)
[2] = molecular target: mS15 (Mus musculus); assay: flow cytometry, MC38.mS15 cells, 1 µg hybridoma-purified mAb, PE anti-mouse Ig
[3] = molecular target: mS15 (Mus musculus); assay: flow cytometry titration, 293T cells transfected with mouse Siglec-15 (293T.mS15)
[4] = molecular target: mS15 (Mus musculus); assay: flow cytometry, formalin-fixed MC38.mS15 cells
[5] = molecular target: mS15 (Mus musculus); assay: flow cytometry, live MC38.mS15 cells, 1 µg mAb/1E05 cells/100 µL, PE secondary

Measured: binding

B1: 1C12 (antibody, V domains shown)
VH: EVQLVESGGGLVKPGGSLKLSCAASGFSFSDYGMHWVRQAPEKGLEWVAYISSGSSILYYADIVKGRFTISRDNAKNTLFLQMTSLRSEDTAMYYCARDHYHGNGSDYWGQGTTLTVSS
VL: DVLMTQTPLSLPVSLGDQASISCRSSQSIVHSNGNTYLEWYLQKPGQSPKLLIYKVSNRFSGVPDRFSGSGSGTDFTLKISRVEAEDLGVYYCFQGSHVPWTFGGGTKLEIK
binds: all assays above

B2: 1B2 (antibody, V domains shown)
VH: B1 VH with L11F, S28T, L58I, I63T
VL: B1 VL
binds: all assays above

B3: 105A (antibody, V domains shown)
VH: EVQLQQSGAELVRPGASVKLSCTASGFNIKDDYMHWVKQRPEQGLEWIGCIDPENGDIEYASRFQGKATMTADTSSNTAYLQLTSLTSADTAVYYCTTYVGFGYWGQGTLVTVSA
VL: B1 VL with W101L, G105A, I111L
binds: [2] | [4] | [5]

B4: 6F8 (antibody, V domains shown)
VH: QVQLKQSGPELVRPGASVKISCEASGYTFTDYYVNWVKQRPGRGLEWIGKIGPGSVSIYYNEKFKDKATLTADKSSSTAYMQLSGLTSEDSAVYFCASYYYGFAYWGQGTLVTVSA
VL: DIVMTQAAPSVPVTPGESVSISCRSSKSLLHSNGNTYLYWFLQRPGQSPQLLIYRMSNLASGVPDRFGGSGSGTAFTLRISRVEAEDVGVYYCMQHLEYPYTFGGGTKLEIKR
binds: all assays above

B5: 8C8 (antibody, V domains shown)
VH: B4 VH with P9A, R13K, E23K, R43Q, G54E, N61S, D66A, G85S
VL: DIVMTQAAPSVPVTPGESVSISCRSSKSLLHSNGNTYLYWFLQRPGQSPQLLIYRMSNLASGVPDRFGGSGSGTAFTLRISRVEAEDVGVYYCMQHLEYPYTFGGGTKLEIK
binds: all assays above

B6: 1C3 (antibody, V domains shown)
VH: B4 VH with P9A, R13K, E23K, T28I, R43Q, D66G, G85S
VL: B5 VL with V90F, K108R
binds: all assays above

B7: 92A (antibody, V domains shown)
VH: DVQLQESGPGLVKFSQSLSLTCSVTGYSITSGYYWNWIRQFPGNKLEWMGYIRHDGSNNYNPSLKNRISITRDTSKNQFFLKLNSVITEDTATYYCVREIYDGSSGYFDVWGTGTTVTVSS
VL: QIVLTQSPAIMSASLGEEITLICSASSSVSYMHWYQQKSGTSPKLLIYRTSNLASGVPSRFSGSGSGTFYSLTISSVEAEDAADYYCHQWSSWTFGGGTQLEIK
binds: [2] | [4] | [5]

B8: 3H10 (antibody, V domains shown)
VH: EVQLQQSGAELVRPGASVKLSCTASGFNIKDYYMHWVKERPEQGLEWIGRIDPEDGDIEYDPKFQGKATMTADTSSNTAYLQFSSLTSEDTAVYYCVTDYDYDGGWFAYWGQGTLVTVSA
VL: QIILTQSPAIMSASPGEKVTMTCSASSSTSFMHWYQQKPGTSPKRWIFDTSKLASGVPGRFIGSGSGTSYSLTISTMEAEDAATYYCHQRSAYPWTFGGGTKLEIK
binds: all assays above

B9: 1H3 (antibody, V domains shown)
VH: QVQLKESGPGLVAPSQSLSITCTVSGFSLSNYGVHWVRQPPGKGLEWLVLIWSDGSTTYNSALKSRLSISKDNSKSQVFLKMNSLQTGDTAMYYCARHPYDDYSGYYYTMDYWGQGTSVTVSS
VL: DIQMTQASSSLSVSLGGRVTITCKASDHINNWLAWYQQKPGNAPRLLISGATSLETGVPSRFSGSGSGKDYTLSITSLQTEDVATYYCQQYWSSPLTFGAGTKLELK
binds: all assays above
